Assay [1] deals with T1, HSBP-nYFP (HEAT SHOCK FACTOR BINDING PROTEIN fused to the N-terminal part of YFP) (Arabidopsis thaliana) (UniProt Q8GW48).
T1 sequence: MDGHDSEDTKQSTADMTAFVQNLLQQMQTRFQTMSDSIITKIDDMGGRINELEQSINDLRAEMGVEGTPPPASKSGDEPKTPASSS
Nature of the assay: split reporter.

Assay [2] concerns the target T2, HSBP-GFP (Arabidopsis thaliana) (UniProt Q8GW48).
T2 sequence: T1 sequence
Nature of the assay: co-IP.

Results are given in words; binding and its absence hold for the method and conditions named. In cells and extracts the contact can be indirect. Some binding calls cover weakened binding; strength is not graded here. Where a sequence is shown, tags or fusion partners need not be part of it.

B1: EID1-cYFP (… IM DUNKELROTEN LICHT 1 fused to the C-terminal part of YFP) (protein, UniProt Q8LEA8 1-336)
chain: MAESVFSCIPEDVVFNIFFKLQDDPRNWARLACVCTKFSSIVRNVCCKTQCYSAIPTVISDLLPLPPSAAASASSSTAADSSLTPPGGWASLYKLAVCCPGLFHAGILLENSDFGLERELGPDQNLDPKPTTTDLALNDEEVSKPVGSGLETTSFWSLYDDLYTDTIPAPPPEDSIDDQEEEIETSEIRPGRDLPVRKRRKICRSLGSHLASGGWNLSREQGNKLLASRFRGDCLYICNWPGCIHVEEKRNYMLFRGVFKDFKRSRVWRTINDGNRSKTSGLKCAFCLCDETWDLHSSFCLRRVFGFHDDGEPVVRAYVCENGHVSGAWTALPLYT
On to B1, for which the binding entry in assay [1] is reported as “binds”.

B2: FLAG-EID1 (protein, UniProt Q8LEA8 1-336)
chain: B1 chain
Consider B2, for which the binding result in assay [2] is recorded as “binds”.
